PubChem BioAssay AID493246, Drosophila RNAi Screening Center, 2011
In all, the deposit lists about 21,000 reagents; shown is a random part of those with a known target gene and a result. Over the whole deposit, 429 (2%) were called active. 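Values are raw and not normalised between plates; calls rest on per-plate z-scores that were not deposited.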 A plus sign joins genes that one reagent is predicted to hit. Reagent sequences are not shown. Not given: the amount of reagent, the time to read-out.

- Purpose: 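Genes fly cells need to grow and stay alive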 (primary screen)
- System: Drosophila Kc and S2R+ cells
- Knock-down reagent: long dsRNA against Drosophila genes
- Detection: 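Raw, unnormalised count of remaining cells in each well; per-plate z-scores of cell number underlie the calls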
- Scale: Kc cell number and S2R+ cell number: higher = more cells remaining
- Active means: 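Counted as a hit if cell number falls by a z-score of at least 3 within its plate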

Target gene,amplicon,"Kc cell number, rep 1","Kc cell number, rep 2","S2R+ cell number, rep 1","S2R+ cell number, rep 2",call
Gat (GABA transporter),DRSC17144,1.53e6,1.50e6,1.08e6,1.19e6,inactive
CG42514,DRSC10428,1.58e6,1.70e6,1.17e6,1.30e6,inactive
usp (ultraspiracle),DRSC18847,1.67e6,1.70e6,1.14e6,1.25e6,inactive
CG42535,DRSC09041,1.34e6,1.47e6,1.13e6,1.26e6,inactive
CG8490,DRSC07194,1.60e6,1.67e6,8.03e5,1.18e6,inactive
CG31300,DRSC14657,1.78e6,1.65e6,1.05e6,1.16e6,inactive
grk (gurken),DRSC03540,1.29e6,1.39e6,5.55e5,6.92e5,inactive
CG15347,DRSC18031,1.61e6,1.60e6,1.05e6,1.21e6,inactive
Atg6 (Autophagy-related 6),DRSC15798,1.45e6,1.58e6,1.10e6,1.18e6,inactive
Pkd2 (Polycystic kidney disease 2),DRSC02962,1.70e6,1.96e6,1.22e6,1.29e6,inactive
Pkcdelta (Protein kinase C delta),DRSC19356,1.59e6,1.47e6,1.13e6,1.15e6,inactive
Pkcdelta (Protein kinase C delta),DRSC19399,1.57e6,1.62e6,1.05e6,1.18e6,inactive
CG34195,DRSC06909,1.58e6,1.62e6,1.26e6,1.57e6,inactive
mRpS18A (mitochondrial ribosomal protein S18A),DRSC14369,1.31e6,1.43e6,1.06e6,1.11e6,inactive
MED24 (Mediator complex subunit 24),DRSC10944,1.60e6,1.58e6,1.24e6,1.15e6,inactive
mRpS9 (mitochondrial ribosomal protein S9),DRSC12645,1.39e6,1.48e6,1.05e6,1.20e6,inactive
mRpS9 (mitochondrial ribosomal protein S9),DRSC15456,1.29e6,1.44e6,9.16e5,1.04e6,inactive
hll (heimdall),DRSC01944,1.09e6,1.16e6,1.02e6,1.07e6,inactive
CG18249,DRSC15318,1.56e6,1.62e6,1.18e6,1.28e6,inactive
Mst33A,DRSC03371,1.68e6,1.73e6,1.33e6,1.55e6,inactive
CG11127,DRSC06043,1.41e6,1.45e6,1.00e6,1.08e6,inactive
CG6800,DRSC16119,1.44e6,1.39e6,1.12e6,1.23e6,inactive
CG6928,DRSC10749,1.36e6,1.37e6,1.27e6,1.26e6,inactive
Dgk (Diacyl glycerol kinase),DRSC05064,1.50e6,1.49e6,7.59e5,8.66e5,inactive
Dgk (Diacyl glycerol kinase),DRSC05065,1.50e6,1.54e6,9.65e5,1.11e6,inactive
Dgk (Diacyl glycerol kinase),DRSC06171,1.49e6,1.74e6,1.15e6,1.37e6,inactive
Dgk (Diacyl glycerol kinase),DRSC06782,1.33e6,1.32e6,1.10e6,1.17e6,inactive
Osi12 (Osiris 12),DRSC12177,1.64e6,1.79e6,1.24e6,1.34e6,inactive
CG15024,DRSC08478,1.60e6,1.46e6,1.07e6,1.19e6,inactive
beg (bad egg),DRSC10923,1.43e6,1.50e6,1.31e6,1.28e6,inactive
Hsl (Hormone-sensitive lipase),DRSC06028,1.37e6,1.43e6,1.11e6,1.20e6,inactive
vrs (versager),DRSC15832,1.58e6,1.71e6,1.38e6,1.50e6,inactive
Osi1 (Osiris 1),DRSC12271,1.73e6,2.05e6,1.24e6,1.38e6,inactive
Osi21 (Osiris 21),DRSC02408,1.67e6,1.74e6,1.35e6,1.54e6,inactive
CG15459,DRSC20530,1.33e6,1.38e6,9.64e5,1.11e6,inactive
CG10336,DRSC02037,1.25e6,1.31e6,1.22e6,1.27e6,inactive
Tmx3 (Thioredoxin-related transmembrane protein 3),DRSC10471,2.01e6,1.89e6,1.32e6,1.47e6,inactive
lwr (lesswright),DRSC00828,1.30e6,1.31e6,6.60e5,7.51e5,inactive
ftz-f1 (ftz transcription factor 1),DRSC11347,1.77e6,1.95e6,1.30e6,1.34e6,inactive
AspRS (Aspartyl-tRNA synthetase),DRSC05914,1.42e6,1.43e6,1.26e6,1.32e6,inactive
msd5 (mitotic spindle density 5),DRSC08560,1.42e6,1.34e6,9.41e5,1.12e6,inactive
CG3748,DRSC02716,1.68e6,1.86e6,1.34e6,1.54e6,inactive
mr (morula),DRSC04332,1.37e6,1.38e6,1.09e6,1.16e6,inactive
Arms (Ankyrin repeat-rich membrane spanning),DRSC03856,5.42e5,,9.33e5,,inactive
Arms (Ankyrin repeat-rich membrane spanning),DRSC03857,5.52e5,,8.45e5,,inactive
Arms (Ankyrin repeat-rich membrane spanning),DRSC04052,1.44e6,1.60e6,1.11e6,1.10e6,inactive
Arms (Ankyrin repeat-rich membrane spanning),DRSC04256,1.05e6,1.17e6,1.02e6,3.23e5,active
Tsp97E (Tetraspanin 97E),DRSC16019,5.56e5,,8.08e5,,inactive
Tim17a1,DRSC14184,1.43e6,1.47e6,1.23e6,1.31e6,inactive
CG15710,DRSC06581,1.50e6,1.58e6,1.15e6,1.32e6,inactive
Helz (Helicase with zinc finger),DRSC11072,1.52e6,1.56e6,1.28e6,1.28e6,inactive
CG14543,DRSC14887,1.47e6,1.62e6,9.71e5,1.08e6,inactive
CG7888,DRSC10926,1.37e6,1.40e6,1.19e6,1.12e6,inactive
Cyp9b2 (Cytochrome P450 9b2),DRSC07390,1.55e6,1.51e6,1.22e6,1.27e6,inactive
CG8142,DRSC20086,1.60e6,1.63e6,1.06e6,1.26e6,inactive
Lcp65Ag3 + Lcp65Ag2 + Lcp65Ag1,DRSC11214,1.54e6,1.46e6,1.25e6,1.24e6,inactive
Lcp65Ag3 + Lcp65Ag2 + Lcp65Ag1,DRSC11215,1.45e6,1.24e6,1.21e6,1.22e6,inactive
ppk17 (pickpocket 17),DRSC02252,1.51e6,1.55e6,1.34e6,1.41e6,inactive
CG10098,DRSC12509,1.61e6,1.62e6,1.33e6,1.45e6,inactive
CG5011,DRSC00039,1.50e6,1.51e6,9.63e5,1.09e6,inactive
CG5011,DRSC00674,1.42e6,1.48e6,1.21e6,1.23e6,inactive
CG14535,DRSC02393,1.53e6,1.55e6,1.22e6,1.26e6,inactive
CG34047 (retired record),DRSC07857,1.39e6,1.34e6,1.01e6,1.12e6,inactive
l(2)10685 (lethal (2) 10685),DRSC00665,1.22e6,1.30e6,1.07e6,9.90e5,inactive
N (Notch),DRSC18685,1.43e6,1.48e6,1.06e6,1.20e6,inactive
Mal-A8 (Maltase A8),DRSC07234,1.89e6,1.94e6,1.44e6,1.71e6,inactive
simj (simjang),DRSC10942,1.16e6,1.40e6,1.29e6,8.81e5,inactive
CG4884,DRSC15671,1.72e6,1.80e6,1.03e6,1.06e6,inactive
Elp6 (Elongator complex protein 6),DRSC16571,1.62e6,1.61e6,1.24e6,1.32e6,inactive
CG9643,DRSC00722,1.52e6,1.53e6,1.10e6,1.34e6,inactive
Wdr62 (WD repeat domain 62),DRSC00081,1.62e6,1.75e6,1.10e6,1.32e6,inactive
Wdr62 (WD repeat domain 62),DRSC00082,1.73e6,1.91e6,1.16e6,1.31e6,inactive
Wdr62 (WD repeat domain 62),DRSC00701,1.33e6,1.34e6,7.79e5,9.61e5,inactive
CG15773,DRSC18079,1.44e6,1.41e6,1.05e6,1.09e6,inactive
CG31019,DRSC13994,1.51e6,1.61e6,1.11e6,1.14e6,inactive

7 entries already listed, arranged by “S2R+ cell number, rep 1”, ascending.
Target gene,amplicon,"Kc cell number, rep 1","Kc cell number, rep 2","S2R+ cell number, rep 1","S2R+ cell number, rep 2",call
Tsp97E (Tetraspanin 97E),DRSC16019,5.56e5,,8.08e5,,inactive
CG14543,DRSC14887,1.47e6,1.62e6,9.71e5,1.08e6,inactive
Arms (Ankyrin repeat-rich membrane spanning),DRSC04256,1.05e6,1.17e6,1.02e6,3.23e5,active
Arms (Ankyrin repeat-rich membrane spanning),DRSC04052,1.44e6,1.60e6,1.11e6,1.10e6,inactive
CG15710,DRSC06581,1.50e6,1.58e6,1.15e6,1.32e6,inactive
Tim17a1,DRSC14184,1.43e6,1.47e6,1.23e6,1.31e6,inactive
Helz (Helicase with zinc finger),DRSC11072,1.52e6,1.56e6,1.28e6,1.28e6,inactive
